The data set deals with Human erythrocytes. Nature of the data set: Haemolysis assay using human blood. The format is cell-based. The settings on record: therapeutic index, HC50 over A. baumannii NCTC13420 MIC. The procedure:
To determine the extent of haemolytic activity (the ability to lyse red blood cells) in test peptides, a haemolysis assay was conducted using human blood (BioIVT, West Sussex, UK). Human erythrocytes were exposed to a single fixed concentration or a range of concentrations as to determine the % haemolysis (fixed concentration) or the concentration at which 50% haemolysis occurred (HC50), respectively. Prior to the assay, whole human blood was repeatedly washed in phosphate buffered saline (PBS) under cooled conditions to remove the buffy coat, plasma and cell debris. Washed erythrocytes were diluted as to achieve 1×10^8 cells/mL in PBS. Prepared human erythrocyte samples were combined with peptide at a single fixed concentration of 128 μg/mL, or a range of concentrations (two-fold dilution series) from 1000-31.25 μg/mL. Positive and negative controls containing 2% (v/v) Triton X-100 and PBS alone, respectively, were also prepared. Samples were incubated at 37° C. for 1 hour and then centrifuged to collect intact erythrocytes. Haemoglobin release was determined by recording the optical density of the supernatant at 540 nm. Optical density values were transformed to a percentage of the positive control. Results were recorded as a percentage haemolysis at 128 μg/mL, or by plotting the percentage haemolysis versus concentration and extrapolating the HC50 using linear regression analysis (Table 2 above)
The therapeutic index is a widely-accepted parameter to represent the specificity of antimicrobial peptides for prokaryotic versus eukaryotic cells. It is calculated by the ratio of hemolytic activity and antimicrobial activity (MIC) (Table 2 above); thus, larger values of therapeutic index indicate greater specificity for prokaryotic cells. With the peptides used in this study the inventors used the HC50/MIC ratio value to calculate the therapeutic index.

Structures are written as SMILES. Peptide text beside a SMILES is read from it.

Consider `CC(=O)N[C@H](CCCCN)C(=O)N[C@H](CC(C)C)C(=O)N[C@H](CCCCN)C(=O)N[C@H](CCCCN)C(=O)N[C@H](CC(C)C)C(=O)N[C@H](CC(C)C)C(=O)N[C@H](CCCCN)C(=O)N[C@H](CCCCN)C(=O)N[C@H](CC(C)C)C(=O)N[C@H](CO)C(=O)N[C@H](CO)C(=O)N[C@H](C)C(=O)N[C@H](CCCCN)C(=O)N[C@H](CO)C(=O)N[C@H](CO)C(=O)N[C@H](CCCCN)C(=O)N[C@H](CC(C)C)C(=O)N[C@H](CO)C(=O)N[C@@H](C(=O)N[C@H](CC(C)C)C(=O)N[C@H](CC(C)C)C(=O)N[C@H](CCCCN)C(=O)N[C@H](CCCCN)C(=O)N[C@H](CC(C)C)C(=O)N[C@H](CCCCN)C(=O)N[C@H](CCCCN)C(N)=O)[C@H](C)O` [compound 3] (HELM PEPTIDE1{[ac].[dK].[dL].[dK].[dK].[dL].[dL].[dK].[dK].[dL].[dS].[dS].[dA].[dK].[dS].[dS].[dK].[dL].[dS].[dT].[dL].[dL].[dK].[dK].[dL].[dK].[dK].[am]}$$$$V2.0), for which the “HC50/A.b MIC selectivity ratio” value was over 1000.
The result for `CC(=O)N[C@H](CCCCN)C(=O)N[C@H](CC(C)C)C(=O)N[C@H](CO)C(=O)N[C@H](CO)C(=O)N[C@H](CC(C)C)C(=O)N[C@H](CC(C)C)C(=O)N[C@H](CO)C(=O)N[C@H](CCCCN)C(=O)N[C@H](CC(C)C)C(=O)N[C@H](CCCCN)C(=O)N[C@H](CCCCN)C(=O)N[C@H](C)C(=O)N[C@H](CCCCN)C(=O)N[C@H](CCCCN)C(=O)N[C@H](CCCCN)C(=O)N[C@H](CCCCN)C(=O)N[C@H](CC(C)C)C(=O)N[C@H](CCCCN)C(=O)N[C@H](CCCCN)C(=O)N[C@H](CC(C)C)C(=O)N[C@H](CC(C)C)C(=O)N[C@H](CCCCN)C(=O)N[C@H](C)C(=O)N[C@H](CC(C)C)C(=O)N[C@H](CO)C(=O)N[C@H](CO)C(N)=O` [compound 5] (HELM PEPTIDE1{[ac].[dK].[dL].[dS].[dS].[dL].[dL].[dS].[dK].[dL].[dK].[dK].[dA].[dK].[dK].[dK].[dK].[dL].[dK].[dK].[dL].[dL].[dK].[dA].[dL].[dS].[dS].[am]}$$$$V2.0) reads 669.
Consider `CC(=O)N[C@H](CCCCN)C(=O)N[C@H](CC(C)C)C(=O)N[C@H](CCCCN)C(=O)N[C@H](CCCCN)C(=O)N[C@H](CC(C)C)C(=O)N[C@H](CC(C)C)C(=O)N[C@H](CCCCN)C(=O)N[C@H](CCCCN)C(=O)N[C@H](CC(C)C)C(=O)N[C@H](CCCCN)C(=O)N[C@H](CO)C(=O)N[C@H](C)C(=O)N[C@H](CCCCN)C(=O)N[C@H](CO)C(=O)N[C@H](CO)C(=O)N[C@H](CCCCN)C(=O)N[C@H](CC(C)C)C(=O)N[C@H](CO)C(=O)N[C@@H](C(=O)N[C@H](CC(C)C)C(=O)N[C@H](CC(C)C)C(=O)N[C@H](CO)C(=O)N[C@H](CCCCN)C(=O)N[C@H](CC(C)C)C(=O)N[C@H](CCCCN)C(=O)N[C@H](CCCCN)C(N)=O)[C@H](C)O` [compound 6] (HELM PEPTIDE1{[ac].[dK].[dL].[dK].[dK].[dL].[dL].[dK].[dK].[dL].[dK].[dS].[dA].[dK].[dS].[dS].[dK].[dL].[dS].[dT].[dL].[dL].[dS].[dK].[dL].[dK].[dK].[am]}$$$$V2.0), for which the “HC50/A.b MIC selectivity ratio” value is listed as over 1000.
The figure for `CC(=O)N[C@H](C)C(=O)N[C@H](CC(C)C)C(=O)N[C@H](CCCCN)C(=O)N[C@H](CCCCN)C(=O)N[C@H](CC(C)C)C(=O)N[C@H](CC(C)C)C(=O)N[C@H](CCCCN)C(=O)N[C@H](CCCCN)C(=O)N[C@H](CC(C)C)C(=O)N[C@H](CO)C(=O)N[C@H](CO)C(=O)N[C@H](C)C(=O)N[C@H](CCCCN)C(=O)N[C@H](CO)C(=O)N[C@H](CO)C(=O)N[C@H](CCCCN)C(=O)N[C@H](CC(C)C)C(=O)N[C@H](CO)C(=O)N[C@@H](C(=O)N[C@H](CC(C)C)C(=O)N[C@H](CC(C)C)C(=O)N[C@H](CCCCN)C(=O)N[C@H](CCCCN)C(=O)N[C@H](CC(C)C)C(=O)N[C@H](CCCCN)C(=O)N[C@H](CCCCN)C(N)=O)[C@H](C)O` [compound 8] (HELM PEPTIDE1{[ac].[dA].[dL].[dK].[dK].[dL].[dL].[dK].[dK].[dL].[dS].[dS].[dA].[dK].[dS].[dS].[dK].[dL].[dS].[dT].[dL].[dL].[dK].[dK].[dL].[dK].[dK].[am]}$$$$V2.0) is over 500.
Consider `CC(=O)N[C@H](C)C(=O)N[C@H](CC(C)C)C(=O)N[C@H](CO)C(=O)N[C@H](CO)C(=O)N[C@H](CC(C)C)C(=O)N[C@H](CC(C)C)C(=O)N[C@H](CO)C(=O)N[C@H](CCCCN)C(=O)N[C@H](CC(C)C)C(=O)N[C@H](CCCCN)C(=O)N[C@H](CCCCN)C(=O)N[C@H](C)C(=O)N[C@H](CCCCN)C(=O)N[C@H](CCCCN)C(=O)N[C@H](CCCCN)C(=O)N[C@H](CCCCN)C(=O)N[C@H](CC(C)C)C(=O)N[C@H](CCCCN)C(=O)N[C@H](CCCCN)C(=O)N[C@H](CC(C)C)C(=O)N[C@H](CC(C)C)C(=O)N[C@H](CCCCN)C(=O)N[C@H](C)C(=O)N[C@H](CC(C)C)C(=O)N[C@H](CO)C(=O)N[C@H](CO)C(N)=O` [compound 10] (HELM PEPTIDE1{[ac].[dA].[dL].[dS].[dS].[dL].[dL].[dS].[dK].[dL].[dK].[dK].[dA].[dK].[dK].[dK].[dK].[dL].[dK].[dK].[dL].[dL].[dK].[dA].[dL].[dS].[dS].[am]}$$$$V2.0), for which the “HC50/A.b MIC selectivity ratio” value is reported as over 500.
The result for `CC(=O)N[C@H](CCCCN)C(=O)N[C@H](CC(C)C)C(=O)N[C@H](CCCCN)C(=O)N[C@H](CCCCN)C(=O)N[C@H](CC(C)C)C(=O)N[C@H](CC(C)C)C(=O)N[C@H](CCCCN)C(=O)N[C@H](CCCCN)C(=O)N[C@H](CC(C)C)C(=O)N[C@H](CO)C(=O)N[C@H](CO)C(=O)N[C@H](C)C(=O)N[C@H](CCCN)C(=O)N[C@H](CO)C(=O)N[C@H](CO)C(=O)N[C@H](CCCN)C(=O)N[C@H](CC(C)C)C(=O)N[C@H](CO)C(=O)N[C@@H](C(=O)N[C@H](CC(C)C)C(=O)N[C@H](CC(C)C)C(=O)N[C@H](CCCCN)C(=O)N[C@H](CCCCN)C(=O)N[C@H](CC(C)C)C(=O)N[C@H](CCCCN)C(=O)N[C@H](CCCCN)C(N)=O)[C@H](C)O` [compound 14] (HELM PEPTIDE1{[ac].[dK].[dL].[dK].[dK].[dL].[dL].[dK].[dK].[dL].[dS].[dS].[dA].[NCCC[C@@H](N[*:1])C(=O)[*:2]].[dS].[dS].[NCCC[C@@H](N[*:1])C(=O)[*:2]].[dL].[dS].[dT].[dL].[dL].[dK].[dK].[dL].[dK].[dK].[am]}$$$$V2.0) reads over 500; that for `CC(=O)N[C@H](CCCCN)C(=O)N[C@H](CC(C)C)C(=O)N[C@H](CCCCN)C(=O)N[C@H](CCCCN)C(=O)N[C@H](CC(C)C)C(=O)N[C@H](CC(C)C)C(=O)N[C@H](CCCCN)C(=O)N[C@H](CCCCN)C(=O)N[C@H](CC(C)C)C(=O)N[C@H](CO)C(=O)N[C@H](CO)C(=O)N[C@H](C)C(=O)N[C@H](CCN)C(=O)N[C@H](CO)C(=O)N[C@H](CO)C(=O)N[C@H](CCN)C(=O)N[C@H](CC(C)C)C(=O)N[C@H](CO)C(=O)N[C@@H](C(=O)N[C@H](CC(C)C)C(=O)N[C@H](CC(C)C)C(=O)N[C@H](CCCCN)C(=O)N[C@H](CCCCN)C(=O)N[C@H](CC(C)C)C(=O)N[C@H](CCCCN)C(=O)N[C@H](CCCCN)C(N)=O)[C@H](C)O` [compound 15] (HELM PEPTIDE1{[ac].[dK].[dL].[dK].[dK].[dL].[dL].[dK].[dK].[dL].[dS].[dS].[dA].[NCC[C@@H](N[*:1])C(=O)[*:2]].[dS].[dS].[NCC[C@@H](N[*:1])C(=O)[*:2]].[dL].[dS].[dT].[dL].[dL].[dK].[dK].[dL].[dK].[dK].[am]}$$$$V2.0), over 500.

These data come from patent publication US20200377561A1, “ANTIMICROBIAL PEPTIDES AND METHODS OF TREATING GRAM-NEGATIVE PATHOGEN INFECTIONS: POLAR AND NON-POLAR FACE ANALOGS” (THE REGENTS OF THE UNIVERSITY OF COLORADO, a body corporate, priority 2017, published 2020).
